Binding data for two substances are collected here from article PMC7702703.

Chains of the proteins cited; added tags and fusions are not shown. Lines headed by an entry give the natural chain unless they say otherwise; changes in a name come on top. A line that says so, or that is headed by a name, gives the form on record, which may keep a tag or linker.
UniProt P10852: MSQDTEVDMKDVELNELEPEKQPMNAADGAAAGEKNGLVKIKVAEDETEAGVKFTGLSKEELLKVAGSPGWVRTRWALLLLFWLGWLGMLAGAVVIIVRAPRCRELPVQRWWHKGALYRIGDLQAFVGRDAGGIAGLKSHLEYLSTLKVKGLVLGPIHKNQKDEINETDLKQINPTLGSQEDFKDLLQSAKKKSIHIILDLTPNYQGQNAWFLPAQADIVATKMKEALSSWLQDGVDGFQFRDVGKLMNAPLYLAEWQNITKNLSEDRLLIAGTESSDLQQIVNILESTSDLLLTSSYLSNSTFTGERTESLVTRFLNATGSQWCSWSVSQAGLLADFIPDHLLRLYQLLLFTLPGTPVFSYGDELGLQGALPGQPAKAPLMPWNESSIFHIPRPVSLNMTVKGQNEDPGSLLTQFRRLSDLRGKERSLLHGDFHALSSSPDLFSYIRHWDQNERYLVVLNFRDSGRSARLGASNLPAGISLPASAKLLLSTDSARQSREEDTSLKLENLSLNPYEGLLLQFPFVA
UniProt Q9Z127: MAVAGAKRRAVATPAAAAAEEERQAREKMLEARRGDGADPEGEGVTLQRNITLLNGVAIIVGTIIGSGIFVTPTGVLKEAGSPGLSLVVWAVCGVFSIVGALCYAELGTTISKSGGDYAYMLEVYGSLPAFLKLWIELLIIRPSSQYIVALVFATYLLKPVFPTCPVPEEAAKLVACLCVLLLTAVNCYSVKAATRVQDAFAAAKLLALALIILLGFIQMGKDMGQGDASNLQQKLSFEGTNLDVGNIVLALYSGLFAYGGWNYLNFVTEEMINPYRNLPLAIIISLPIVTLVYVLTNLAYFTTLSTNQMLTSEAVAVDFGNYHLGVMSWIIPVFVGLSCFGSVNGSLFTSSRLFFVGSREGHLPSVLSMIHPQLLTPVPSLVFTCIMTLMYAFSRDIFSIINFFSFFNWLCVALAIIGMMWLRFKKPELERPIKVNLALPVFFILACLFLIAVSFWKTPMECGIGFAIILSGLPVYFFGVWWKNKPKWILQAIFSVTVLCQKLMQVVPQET
exon 3-deleted LAT1 (LAT1-Δex3) (Q9Z127, form named): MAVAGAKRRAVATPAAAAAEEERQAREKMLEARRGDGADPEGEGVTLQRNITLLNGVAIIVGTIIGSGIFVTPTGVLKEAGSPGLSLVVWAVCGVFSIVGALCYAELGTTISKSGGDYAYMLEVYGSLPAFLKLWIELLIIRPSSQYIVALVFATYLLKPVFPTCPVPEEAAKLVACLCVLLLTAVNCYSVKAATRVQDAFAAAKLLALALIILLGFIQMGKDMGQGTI

This assay concerns the target 4F2 heavy chain (4F2hc) (UniProt P10852). Nature of the assay: non-reducing SDS-PAGE and western blot (DTT-sensitive heterodimer band); total membrane fractions of X. laevis oocytes 2 days after cRNA injection (LAT1 or LAT1-Δex3 alone or with equimolar 4F2hc cRNA); western blotting with mLAT1(R) antibody and 4F2hc antibody in the presence or absence of 100 mM DTT.

Results are given in words; binding and its absence hold for the method and conditions named. Some binding calls cover weakened binding; strength is not graded here.

On to “exon 3-deleted LAT1 (LAT1-Δex3) (from UniProt Q9Z127 1-227) (domain or fragment)”, for which the binding result is given as “no binding”. Turning to “L-type amino acid transporter 1 (LAT1), wild type (from UniProt Q9Z127 1-512)”, the binding result is “binds”.
